In PubChem BioAssay AID1439 (NMMLSC, 2008):
Hit rate of the full screen: of about 220,000 compounds, about 770 (0.35%) were called active. Inconclusive results, whose numbers are uncertain, are shown with a selection of clear calls. No stated cut-off is given here; in the data, active means binding response below about 49% or above about 150%; inconclusive means no clear call, values can overlap the other calls; inactive means in between.

By UniProt entry, the sequences of proteins in these tests, tags left out.
UniProt P09471, whole entry, looked up: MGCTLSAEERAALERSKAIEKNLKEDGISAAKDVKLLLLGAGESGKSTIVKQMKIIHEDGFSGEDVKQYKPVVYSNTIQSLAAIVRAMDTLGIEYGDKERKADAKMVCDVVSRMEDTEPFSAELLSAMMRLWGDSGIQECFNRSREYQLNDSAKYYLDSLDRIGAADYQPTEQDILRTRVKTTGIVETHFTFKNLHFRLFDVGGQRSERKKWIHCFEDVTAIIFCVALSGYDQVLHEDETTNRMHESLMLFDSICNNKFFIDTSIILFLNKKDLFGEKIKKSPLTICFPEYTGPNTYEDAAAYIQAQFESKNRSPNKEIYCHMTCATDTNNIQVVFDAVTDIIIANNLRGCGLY

Molecular target: Guanine nucleotide-binding protein G(o) subunit alpha (Homo sapiens) (UniProt P09471)
Test: RGS7-Galphao binding modulators, primary screen, biochemical, multiplexed bead flow cytometry (AID 1439);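 further: fluorescent Galphao held in activated GDP-AlF4 state binding bead-coupled RGS7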
Details: at 10 µM, actives lie on both sides

Q: With `Cc1cccc2sc(NC(=O)CN3C(=O)C4CC=CCC4C3=O)nc12` (configuration not stated) as the compound, how does the binding response (% of control) read?
A: inconclusive: 92.9%

Q: Which binding response (% of control) does the source give for `C=CCn1c(SCc2nc3ccccc3c(=O)[nH]2)nc2sc3c(c2c1=O)CCCC3` here?
A: inconclusive: 70.5%

Q: For `Cc1cc(=O)n2c(-c3ccc(Cl)cc3)csc2n1`, which binding response (% of control) is on record?
A: inconclusive: 92.4%

Q: Which binding response (% of control) does the source give for `O=C(CN1CCN(Cc2ccccc2Cl)C1=O)NCc1cccnc1` here?
A: inconclusive: 107%

Q: With `Cn1c(N)c(C(=O)CSc2ncn[nH]2)c(=O)n(C)c1=O` as the compound, how does the binding response (% of control) read?
A: inconclusive: 65.1%

Q: `Oc1ccc(/C=N/Nc2ccc(C(F)(F)F)cn2)cc1` was tested. Which binding response (% of control) did it give?
A: inconclusive: 104%

Q: With `COc1ccc(NC(=O)Nc2ccccc2F)cc1Cl` as the compound, how does the binding response (% of control) read?
A: inconclusive: 122%

Q: With `O=C(Cc1ccccc1)Nc1ccc(SC(F)F)cc1` as the compound, how does the binding response (% of control) read?
A: inactive: 101%

Q: With `COc1ccccc1N1CCN(C(=O)CN(c2ccc(C)c(C)c2)S(C)(=O)=O)CC1` as the compound, how does the binding response (% of control) read?
A: inactive: 101%

Q: How did the binding response (% of control) turn out when `COCCN1Cc2cccc(C(=O)NCc3ccc4c(c3)OCO4)c2C1=O` was run?
A: inactive: 91.7%

Q: Which binding response (% of control) does the source give for `COc1ccc(-c2cn3c(C)c(C(=O)Nc4cccc(C)n4)sc3n2)cc1` here?
A: active: 181% [activator]

Q: With `C[C@H](NC(=O)Nc1cccc(Br)c1)C(=O)O` as the compound, how does the binding response (% of control) read?
A: inconclusive: 102%

Q: Which binding response (% of control) does the source give for `CC1=NN(Cc2c(C)nn(Cc3ccccc3)c2C)C(C)(C)C1` here?
A: inactive: 97.8%

Q: With `Cc1ccc(CN2C(=O)N/C(=C\c3cccn3-c3cccc(C(=O)O)c3)C2=O)cc1` as the compound, how does the binding response (% of control) read?
A: inconclusive: 100%

Q: `CCOC(=O)C1=NN(C(C)=O)C2C(=O)N(CC)C(=O)C12` (configuration not stated) was tested. Which binding response (% of control) did it give?
A: inconclusive: 111%

Q: Which binding response (% of control) does the source give for `Cc1c(O)c(S(=O)c2ccccc2)c(=O)n(-c2ccccc2)c1-c1ccccc1` (configuration not stated) here?
A: inactive: 106%

Q: With `CCN(CC)C(=O)Cc1ccccc1` as the compound, how does the binding response (% of control) read?
A: inconclusive: 108%

Q: Which binding response (% of control) does the source give for `O=C(/C=C/c1ccccc1)NC1CCSC1=O` (configuration not stated) here?
A: inactive: 99.4%

Q: With `Cc1c(C)c(C)c(CN2CCCC2)c(C)c1C` as the compound, how does the binding response (% of control) read?
A: inconclusive: 82.9%

Q: For `CC(=O)Nc1cccc(NC(C)=O)n1`, which binding response (% of control) is on record?
A: inconclusive: 109%

Q: Which binding response (% of control) does the source give for `Cc1cccn2c(=O)c3cc(C#N)c(=NC(=O)c4ccco4)n(Cc4ccco4)c3nc12` here?
A: inconclusive: -196%

Q: `Cc1ccc(Nc2c(-c3ccccc3O)nc3ncccn23)cc1` was tested. Which binding response (% of control) did it give?
A: inconclusive: 97.4%

Q: For `O=C1c2ccccc2C(O)(c2ccccc2)N1c1ccncc1` (configuration not stated), which binding response (% of control) is on record?
A: inconclusive: 91.3%

Q: How did the binding response (% of control) turn out when `COc1ccc(CC(=O)Nc2ccccc2NC(=O)c2ccco2)cc1OC` was run?
A: inconclusive: 99.5%

Q: For `O=C(COc1ccc2ccccc2c1)N1CCN(C(=O)c2ccc([N+](=O)[O-])cc2)CC1`, which binding response (% of control) is on record?
A: inactive: 97.3%

Q: With `Fc1ccccc1/C=N/n1c(-c2cccnc2)n[nH]c1=S` as the compound, how does the binding response (% of control) read?
A: inconclusive: 878%

Q: `CC(C)CC1CC(C)(c2csc(NNC(=O)c3ccccc3)n2)OC1=O` (configuration not stated) was tested. Which binding response (% of control) did it give?
A: inactive: 95.9%

Q: How did the binding response (% of control) turn out when `NC(=O)N/N=C/c1cccc(C(F)(F)F)c1` was run?
A: inconclusive: 203%

Q: With `CCOC(=O)C1ON2CCCCC2C1(O)C(F)(F)F` (configuration not stated) as the compound, how does the binding response (% of control) read?
A: inconclusive: 115%

Q: How did the binding response (% of control) turn out when `Cc1c(NC(=S)NNC(=O)CCC(=O)O)c(=O)n(-c2ccccc2)n1C` was run?
A: inconclusive: 65.1%

Q: `COC(=O)c1cccnc1Oc1ccccc1` was tested. Which binding response (% of control) did it give?
A: inconclusive: 163%

Q: `C/C(=N\NC(N)=O)c1cc(Cl)cc(Cl)c1O` was tested. Which binding response (% of control) did it give?
A: inconclusive: 113%

Q: Which binding response (% of control) does the source give for `Fc1ccc(COc2ccc(-c3nnco3)cc2)cc1` here?
A: inconclusive: 77.5%

Q: Which binding response (% of control) does the source give for `NC(=S)N=Nc1c(O)n(CCCl)c2ccc(Br)cc12` here?
A: inconclusive: 153%

Q: How did the binding response (% of control) turn out when `O=C1COc2ccc(C(=O)COC(=O)CCSc3ccccc3)cc2N1` was run?
A: inconclusive: 113%

Q: How did the binding response (% of control) turn out when `Nc1nc2ncc(C(=O)c3cc(F)ccc3O)cc2s1` was run?
A: inconclusive: 97.3%

Q: With `CC(=O)C1=C(C)NC(=O)CC1c1ccc(Br)cc1` (configuration not stated) as the compound, how does the binding response (% of control) read?
A: inactive: 103%

Q: `NNC(=O)CCCCCCCCCCOCCCCO` was tested. Which binding response (% of control) did it give?
A: inconclusive: 80.8%

Q: `COc1ccc(N(CC(=O)Nc2cc([N+](=O)[O-])ccc2C)S(C)(=O)=O)cc1OC` was tested. Which binding response (% of control) did it give?
A: inconclusive: 128%

Q: With `Cc1ccc(CN2CCN(/N=C/c3cccnc3)CC2)cc1` as the compound, how does the binding response (% of control) read?
A: inactive: 110%

Q: `O=C(NC1(O)C(=O)c2ccccc2C1=O)c1ccc(C(F)(F)F)cc1` was tested. Which binding response (% of control) did it give?
A: inconclusive: 88.7%

Q: With `COC(=O)/C=C/c1oc2ccccc2c1C` as the compound, how does the binding response (% of control) read?
A: inconclusive: 109%

Q: Which binding response (% of control) does the source give for `COc1ccccc1N(C)S(=O)(=O)c1ccc(C(=O)O)cc1` here?
A: inconclusive: 100%

Q: Which binding response (% of control) does the source give for `CC(C)C[C@H](NC(=O)c1nc[nH]c1C(=O)N1CCc2ccccc2C1)C(=O)OC(C)(C)C` here?
A: inconclusive: 99.9%

Q: For `CC(C)Sc1nnc([C@H](Cc2ccccc2)NC(=O)OC(C)(C)C)o1`, which binding response (% of control) is on record?
A: inconclusive: 48%

Q: Which binding response (% of control) does the source give for `Nc1nc(NCCCN2CCOCC2)nc(Nc2ccccc2F)c1[N+](=O)[O-]` here?
A: inconclusive: 96.9%

Q: For `Cc1ccc(NC(=S)N(CCCN2CCCC(C)C2)Cc2ccco2)cc1C` (configuration not stated), which binding response (% of control) is on record?
A: inconclusive: 92.8%
